Data on 2 molecules can be found in article PMC6291168.

In assay [1] the target is T1, Flag-tagged Fli1 (pFlag-CMV2-Fli1) (mouse) (UniProt P26323).
T1 sequence: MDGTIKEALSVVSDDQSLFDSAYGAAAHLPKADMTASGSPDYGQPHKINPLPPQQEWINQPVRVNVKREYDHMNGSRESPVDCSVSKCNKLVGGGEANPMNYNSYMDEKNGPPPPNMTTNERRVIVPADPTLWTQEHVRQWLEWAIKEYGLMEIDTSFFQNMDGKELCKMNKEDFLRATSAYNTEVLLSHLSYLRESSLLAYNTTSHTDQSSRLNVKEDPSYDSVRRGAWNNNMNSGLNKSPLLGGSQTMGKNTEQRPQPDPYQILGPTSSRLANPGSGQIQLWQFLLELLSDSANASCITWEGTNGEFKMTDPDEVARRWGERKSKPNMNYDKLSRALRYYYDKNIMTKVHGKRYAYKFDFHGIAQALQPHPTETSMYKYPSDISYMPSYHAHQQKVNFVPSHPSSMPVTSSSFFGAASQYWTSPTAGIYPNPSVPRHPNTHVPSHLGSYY
The experiment in a line: co-IP; Cos-7 cells co-transfected with Myc-Erg and Flag-Fli1, 24 h; NP40 lysis buffer (0.5% NP-40, 50 mM Tris-HCl, 50 mM NaCl, 1 mM EDTA); IP with anti-Myc or anti-Flag overnight, Protein G beads; immunoblot with anti-Myc-Tag or anti-Flag. In general terms: In western blotting, separated proteins are transferred to a membrane and probed.

The target of assay [2] is T2, Myc-tagged Erg (pEF6-Erg) (mouse) (UniProt P81270).
T2 sequence: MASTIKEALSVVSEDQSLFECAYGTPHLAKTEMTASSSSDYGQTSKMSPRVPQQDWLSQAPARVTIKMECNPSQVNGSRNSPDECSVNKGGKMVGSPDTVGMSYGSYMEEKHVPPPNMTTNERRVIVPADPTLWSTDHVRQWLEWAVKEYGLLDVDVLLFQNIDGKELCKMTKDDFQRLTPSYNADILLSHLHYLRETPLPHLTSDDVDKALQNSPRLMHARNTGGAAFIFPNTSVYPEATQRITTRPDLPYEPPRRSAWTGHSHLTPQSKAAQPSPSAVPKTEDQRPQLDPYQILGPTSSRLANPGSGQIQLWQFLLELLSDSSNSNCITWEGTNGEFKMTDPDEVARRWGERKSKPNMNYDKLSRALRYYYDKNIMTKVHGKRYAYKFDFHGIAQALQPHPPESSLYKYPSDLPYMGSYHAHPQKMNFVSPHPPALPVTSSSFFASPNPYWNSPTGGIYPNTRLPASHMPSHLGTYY
The description is as above.

No constants are given. Whether binding was seen depends on the method and setting. In cells and extracts the contact can be indirect. Some binding calls cover weakened binding; strength is not graded here. Where a sequence is shown, tags or fusion partners need not be part of it.

B1: Myc-tagged Erg (pEF6-Erg) (protein, UniProt P81270-4 1-479)
chain: T2 sequence
Take B1: the binding result in assay [1] was “binds”.

B2: Flag-tagged Fli1 (pFlag-CMV2-Fli1) (protein, UniProt P26323 1-452)
chain: T1 sequence
Turning to B2, the binding result in assay [2] is “binds”.
